In patent publication US10159726B2, “Peptides, combination of peptides and scaffolds for use in immunotherapeutic treatment of various cancers” (Immatics Biotechnologies GmbH, priority 2015, dated 2018):

System: HLA-A*24 molecules of primary tumors
Assay: Identification and relative LC-MS quantitation of HLA-A*24 tumor-associated peptides presented on tissue samples (XPRESIDENT presentation profiles)
Design: species or system human
Conditions: for ENTITIES: Table 9A: selected HLA-A*24-binding tumor-associated peptides, cancer entities on which the peptide was found presented; for number of cancer tissues on which the peptide was found presented / number of normal tissues on which the peptide was found presented / number of cell lines on which the peptide was found presented: FIG. 1 presentation profile, shown are only samples where the peptide was found to be presented

Substance | ENTITIES | number of cancer tissues on which the peptide was found presented | other results
385 (QYIEELQKF; listed as Homo sapiens) [compound 385] | NSCLC, HCC |  | 
386 (TFSDVEAHF; listed as Homo sapiens) [compound 386] | HCC, NSCLC, GC, GB |  | 
387 (KYTEKLEEI; listed as Homo sapiens) [compound 387] | HCC, NSCLC, GB, PCA |  | 
388 (IYGEKTYAF; listed as Homo sapiens) [compound 388] | HCC, NSCLC, GC, RCC, GB, PCA |  | 
389 (EYLPEFLHTF; listed as Homo sapiens) [compound 389] | NSCLC |  | 
390 (RYLWATVTI; listed as Homo sapiens) [compound 390] | GC, HCC, NSCLC |  | 
392 (RYLDSLKAIVF; listed as Homo sapiens) [compound 392] | NSCLC, GC, RCC, HCC |  | 
393 (KYIEAIQWI; listed as Homo sapiens) [compound 393] | HCC, NSCLC |  | 
395 (LYINKANIW; listed as Homo sapiens) [compound 395] | NSCLC, GC, HCC |  | 
402 (VWSDVTPLTF; listed as Homo sapiens) [compound 402] | NSCLC, CRC, GC, RCC, GB, PCA, HCC |  | 
406 (TYSEKTTLF; listed as Homo sapiens) [compound 406] | NSCLC, GC |  | 
407 (VYGIRLEHF; listed as Homo sapiens) [compound 407] | HCC, NSCLC, GC, GB |  | 
410 (RFLSGIINF; listed as Homo sapiens) [compound 410] | NSCLC, GC, GB, HCC |  | 
411 (VYIGHTSTI; listed as Homo sapiens) [compound 411] | NSCLC |  | 
412 (SYNPLWLRI; listed as Homo sapiens) [compound 412] | GB, RCC, HCC, NSCLC, GC |  | 
413: peptide found in MST1R (gene looked up) (NYLLYVSNF; listed as Homo sapiens) [compound 413] | HCC, NSCLC, GC |  | 
414 (MYPYIYHVL; listed as Homo sapiens) [compound 414] | HCC, NSCLC, GC, GB, PCA |  | 
416 (AYSDGHFLF; listed as Homo sapiens) [compound 416] | NSCLC, GC, RCC, GB, PCA, HCC |  | 

Substance | ENTITIES | number of cancer tissues on which the peptide was found presented | other results
417 (VYKVVGNLL; listed as Homo sapiens) [compound 417] | GB, RCC, HCC, NSCLC, GC |  | 
EYFTPLLSGQF (listed as Homo sapiens) [SEQ ID NO: 165] |  | 10 | 
EYLDRIGQLFF (listed as Homo sapiens) [SEQ ID NO: 131] |  | 41 | number of normal tissues on which the peptide was found presented: 2
EYNSDLHQFF (listed as Homo sapiens) [SEQ ID NO: 345] |  | 13 | 
FYINGQYQF (listed as Homo sapiens) [SEQ ID NO: 176] |  | 67 | number of cell lines on which the peptide was found presented: 1; number of normal tissues on which the peptide was found presented: 3
IYKWITDNF (listed as Homo sapiens) [SEQ ID NO: 155] |  | 53 | number of normal tissues on which the peptide was found presented: 4
IYSFHTLSF (listed as Homo sapiens) [SEQ ID NO: 113] |  | 28 | 
IYVIPQPHF (listed as Homo sapiens) [SEQ ID NO: 346] |  | 21 | 
KYTSYILAF (listed as Homo sapiens) [SEQ ID NO: 162] |  | 95 | number of cell lines on which the peptide was found presented: 3; number of normal tissues on which the peptide was found presented: 4
LYSPVPFTL (listed as Homo sapiens) [SEQ ID NO: 175] |  | 42 | 
NYIPVKNGKQF (listed as Homo sapiens) [SEQ ID NO: 103] |  | 11 | 
RYGLPAAWSTF (listed as Homo sapiens) [SEQ ID NO: 121] |  | 20 | 
RYLNKSFVL (listed as Homo sapiens) [SEQ ID NO: 115] |  | 25 | number of normal tissues on which the peptide was found presented: 1
SYGTVSQIF (listed as Homo sapiens) [SEQ ID NO: 148] |  | 100 | number of normal tissues on which the peptide was found presented: 5
VFSPDGHLF (listed as Homo sapiens) [SEQ ID NO: 360] |  | 33 | 
VYALKVRTI (listed as Homo sapiens) [SEQ ID NO: 145] |  | 25 | 
VYNEQIRDLL (listed as Homo sapiens) [SEQ ID NO: 354] |  | 13 | 
VYVQILQKL (listed as Homo sapiens) [SEQ ID NO: 111] |  | 32 | number of normal tissues on which the peptide was found presented: 1
